The supplement of paper PMC6078165
± gives the standard deviation of the averaged measurements. Values are relative to the signal before dosing, not to a vehicle control; the signal also falls without drug.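 Fibroblast labels denote human fibroblasts, mainly primary ones from uterus (C12385, HUF), lung (H6013), bone (Hs27A), adrenal (HADF) and skin (WS1), plus mammary HMF and breast cancer-associated Hs343T. Cancer cells are basal-like or mesenchymal-like triple-negative breast cancer lines. A hit is a response shift exceeding 3x replicate standard deviation. The tissue of the other fibroblasts is not given here.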

Tested on: BT20
Test: relative JC-1 red fluorescence (viability) vs pre-drug, coculture with fibroblast (fraction); higher = more viable cancer cells
Experimental: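 JC-1 labelled TNBC cells cocultured 1:1 (1,500 cells each) with CellTrace Violet stained primary or stromal fibroblasts in 384-well plates in FluoroBrite medium, treated with one of 42 anticancer drugs at 0.1, 1, 10 or 100 uM. JC-1 red fluorescence (mitochondrial integrity in cancer cells only) was read by plate reader every 8 h for 72 h. Values are normalised to each well's pre-drug value. The stock of one drug was tenfold lower, so its dose labels may be too high.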

CN(C)CCOc1ccc(/C(=C(/CCCl)c2ccccc2)c2ccccc2)cc1 [Toremifene]
relative JC-1 red fluorescence
Conditions	8 h	16 h	24 h	32 h	40 h	48 h	56 h	64 h	72 h
0.1 µM, coculture fibroblast: C12385	0.911 ± 0.01	0.82 ± 0.039	0.776 ± 0.051	0.711 ± 0.064	0.637 ± 0.07	0.596 ± 0.065	0.566 ± 0.062	0.538 ± 0.055	0.52 ± 0.049
0.1 µM, coculture fibroblast: H6013	0.9253 ± 0.0013	0.89 ± 0.029	0.857 ± 0.08	0.811 ± 0.11	0.778 ± 0.15	0.763 ± 0.18	0.768 ± 0.22	0.753 ± 0.25	0.745 ± 0.27
0.1 µM, coculture fibroblast: H6019	0.87709 ± 0.00044	0.8088 ± 0.0056	0.787 ± 0.017	0.715 ± 0.014	0.665 ± 0.0072	0.646 ± 0.013	0.613 ± 0.025	0.586 ± 0.025	0.567 ± 0.033
0.1 µM, coculture fibroblast: H6076	0.923 ± 0.059	0.921 ± 0.03	0.825 ± 0.028	0.786 ± 0.016	0.75492 ± 0.00015	0.733 ± 0.016	0.717 ± 0.043	0.714 ± 0.058	0.694 ± 0.062
0.1 µM, coculture fibroblast: H6231	0.824 ± 0.12	0.9138 ± 0.001	0.76 ± 0.046	0.69 ± 0.05	0.641 ± 0.057	0.595 ± 0.064	0.558 ± 0.058	0.526 ± 0.073	0.497 ± 0.061
0.1 µM, coculture fibroblast: HADF	0.845 ± 0.21	0.8723 ± 0.0011	0.833 ± 0.023	0.801 ± 0.018	0.776 ± 0.011	0.7325 ± 0.002	0.722 ± 0.018	0.719 ± 0.033	0.687 ± 0.047
0.1 µM, coculture fibroblast: HCFa	0.915 ± 0.025	0.879 ± 0.035	0.8406 ± 0.00086	0.785 ± 0.028	0.743 ± 0.028	0.704 ± 0.034	0.679 ± 0.028	0.65 ± 0.014	0.6104 ± 0.0044
0.1 µM, coculture fibroblast: HCPF	0.951 ± 0.032	0.87 ± 0.04	0.81 ± 0.043	0.78 ± 0.041	0.745 ± 0.039	0.7 ± 0.03	0.665 ± 0.017	0.66 ± 0.02	0.62 ± 0.028
0.1 µM, coculture fibroblast: HHSteC	0.925 ± 0.019	0.855 ± 0.015	0.818 ± 0.038	0.734 ± 0.043	0.684 ± 0.043	0.635 ± 0.045	0.599 ± 0.045	0.573 ± 0.046	0.54 ± 0.047
0.1 µM, coculture fibroblast: HMF	0.949 ± 0.063	0.861 ± 0.042	0.773 ± 0.032	0.7112 ± 0.0055	0.673 ± 0.0058	0.634 ± 0.012	0.604 ± 0.029	0.572 ± 0.04	0.554 ± 0.037
0.1 µM, coculture fibroblast: HPFa	0.9331 ± 0.0048	0.837 ± 0.023	0.85 ± 0.024	0.756 ± 0.026	0.737 ± 0.049	0.697 ± 0.059	0.68 ± 0.081	0.656 ± 0.095	0.61 ± 0.11
0.1 µM, coculture fibroblast: HUF	0.928 ± 0.032	0.812 ± 0.065	0.769 ± 0.084	0.677 ± 0.1	0.619 ± 0.12	0.576 ± 0.12	0.546 ± 0.12	0.527 ± 0.13	0.5 ± 0.12
0.1 µM, coculture fibroblast: Hs5	0.928 ± 0.088	0.883 ± 0.014	0.795 ± 0.031	0.739 ± 0.04	0.697 ± 0.041	0.656 ± 0.04	0.617 ± 0.043	0.577 ± 0.038	0.549 ± 0.04
0.1 µM, coculture fibroblast: Hs27A	0.762 ± 0.084	0.958 ± 0.059	0.854 ± 0.056	0.845 ± 0.091	0.792 ± 0.084	0.762 ± 0.075	0.743 ± 0.077	0.711 ± 0.058	0.661 ± 0.048
0.1 µM, coculture fibroblast: Hs343T	0.956 ± 0.016	0.8568 ± 0.0022	0.744 ± 0.013	0.699 ± 0.02	0.643 ± 0.016	0.595 ± 0.028	0.557 ± 0.036	0.538 ± 0.035	0.504 ± 0.038
0.1 µM, coculture fibroblast: WS1	0.86 ± 0.034	0.775 ± 0.013	0.72 ± 0.01	0.642 ± 0.0077	0.568 ± 0.0039	0.535 ± 0.021	0.498 ± 0.025	0.478 ± 0.026	0.46 ± 0.023
1 µM, coculture fibroblast: C12385	0.9283 ± 0.00099	0.894 ± 0.044	0.81 ± 0.019	0.758 ± 0.037	0.71 ± 0.035	0.684 ± 0.045	0.663 ± 0.043	0.639 ± 0.046	0.621 ± 0.04
1 µM, coculture fibroblast: H6013	0.9773 ± 0.0027	0.91738 ± 0.00081	0.894 ± 0.019	0.87 ± 0.016	0.833 ± 0.025	0.814 ± 0.031	0.812 ± 0.048	0.801 ± 0.055	0.782 ± 0.051
1 µM, coculture fibroblast: H6019	0.893 ± 0.054	0.842 ± 0.075	0.811 ± 0.062	0.763 ± 0.069	0.722 ± 0.068	0.707 ± 0.071	0.666 ± 0.069	0.638 ± 0.071	0.614 ± 0.079
1 µM, coculture fibroblast: H6076	0.7743 ± 0.0021	0.92 ± 0.044	0.871 ± 0.046	0.851 ± 0.052	0.816 ± 0.048	0.79 ± 0.047	0.763 ± 0.044	0.756 ± 0.049	0.737 ± 0.046
1 µM, coculture fibroblast: H6231	0.85 ± 0.091	0.9343 ± 0.0033	0.85 ± 0.016	0.796 ± 0.013	0.766 ± 0.03	0.715 ± 0.047	0.681 ± 0.062	0.66 ± 0.078	0.634 ± 0.083
1 µM, coculture fibroblast: HADF	0.885 ± 0.065	0.969 ± 0.026	0.896 ± 0.036	0.891 ± 0.045	0.852 ± 0.056	0.808 ± 0.07	0.784 ± 0.074	0.756 ± 0.064	0.724 ± 0.06
1 µM, coculture fibroblast: HCFa	0.949 ± 0.014	0.862 ± 0.014	0.876 ± 0.021	0.824 ± 0.024	0.79 ± 0.035	0.758 ± 0.033	0.743 ± 0.036	0.727 ± 0.035	0.69 ± 0.038
1 µM, coculture fibroblast: HCPF	0.7469 ± 0.0056	0.915 ± 0.017	0.8566 ± 0.0042	0.823 ± 0.012	0.785 ± 0.012	0.753 ± 0.023	0.7016 ± 0.0024	0.6956 ± 0.0065	0.6563 ± 0.0065
1 µM, coculture fibroblast: HHSteC	0.9614 ± 0.0029	0.921 ± 0.033	0.824 ± 0.13	0.792 ± 0.074	0.775 ± 0.024	0.773 ± 0.024	0.827 ± 0.11	0.792 ± 0.086	0.764 ± 0.1
1 µM, coculture fibroblast: HMF	0.737 ± 0.018	0.953 ± 0.021	0.826 ± 0.026	0.774 ± 0.018	0.719 ± 0.02	0.676 ± 0.025	0.64 ± 0.013	0.6 ± 0.018	0.57 ± 0.022
1 µM, coculture fibroblast: HPFa	0.9386 ± 0.0093	0.882 ± 0.028	0.906 ± 0.034	0.832 ± 0.039	0.807 ± 0.06	0.772 ± 0.062	0.742 ± 0.065	0.71 ± 0.064	0.66 ± 0.066
1 µM, coculture fibroblast: HUF	0.951 ± 0.024	0.884 ± 0.017	0.8328 ± 0.0064	0.755 ± 0.018	0.706 ± 0.034	0.657 ± 0.02	0.627 ± 0.024	0.613 ± 0.033	0.596 ± 0.044
1 µM, coculture fibroblast: Hs5	0.8318 ± 0.00033	0.958 ± 0.033	0.847 ± 0.024	0.79 ± 0.016	0.7436 ± 0.0037	0.7067 ± 0.00077	0.667 ± 0.0084	0.622 ± 0.012	0.586 ± 0.016
1 µM, coculture fibroblast: Hs27A	0.886 ± 0.055	0.891 ± 0.029	0.816 ± 0.14	0.867 ± 0.097	0.86 ± 0.052	0.879 ± 0.022	0.842 ± 0.0053	0.773 ± 0.055	0.822 ± 0.088
1 µM, coculture fibroblast: Hs343T	0.76 ± 0.05	0.951 ± 0.013	0.8558 ± 0.0036	0.7875 ± 0.00065	0.7185 ± 0.0034	0.6599 ± 0.0065	0.607 ± 0.017	0.584 ± 0.022	0.546 ± 0.03
1 µM, coculture fibroblast: WS1	0.8889 ± 0.0038	0.835 ± 0.0087	0.749 ± 0.01	0.665 ± 0.017	0.606 ± 0.015	0.571 ± 0.02	0.533 ± 0.016	0.505 ± 0.023	0.491 ± 0.018
